From PMC5705118

Biological target: HCV NS4B protein, genotype 3a (S52-SG-Feo subgenomic replicon) (hepatitis C virus genotype 3a (S52))
Assay: co-IP; lysate (Cellytic MT) of Huh7.5/SGR-Feo-JFH-1 or Huh7.5 S52/SG-Feo cells; NS4B precipitated with the antibody MA17616 overnight at 4°C and Protein A agarose; washed 5x with 25 mM Tris, 150 mM NaCl; western blot for HSPB8; control without the NS4B antibody

B1: HSPB8 (Heat Shock Protein Family B Member 8) (protein, UniProt Q9UJY1 1-196)
chain: MADGQMPFSCHYPSRLRRDPFRDSPLSSRLLDDGFGMDPFPDDLTASWPDWALPRLSSAWPGTLRSGMVPRGPTATARFGVPAEGRTPPPFPGEPWKVCVNVHSFKPEELMVKTKDGYVEVSGKHEEKQQEGGIVSKNFTKKIQLPAEVDPVTVFASLSPEGLLIIEAPQVPPYSTFGESSFNNELPQDSQEVTCT
  binding: binds

No constants are given. Whether binding was seen depends on the method and setting. Binding seen in cells or lysates may run through a third protein. Binding calls can cover weak binding; strength is not graded here.
